# In PubChem BioAssay AID2685 (National Center for Advancing Translational Sciences (NCATS), 2010):
# Screen size: about 320,000 compounds; about 2,100 (0.66%) were called active. This list was built around the results that the source calls inconclusive (neither active nor inactive); the mix of calls is not that of the screen. Calls come from the whole dose curve; as a rule, active = well fitted inhibition curve with a large enough effect in the signal ratio, with a control signal flat (not every such curve was filed as active); inconclusive = small, poorly fitted or top-dose-only effect, or effect the other way, or a change in a side signal; inactive = flat fitted curve, though single readings scatter; the % refers to the signal ratio. Where the call is inconclusive, the potency comes from a doubtful curve fit.
# Assay: qHTS Assay for Lipid Storage Modulators in Drosophila S3 Cells
# Details: BODIPY lipid droplet fluorescence, 18-24 h, cells fed with added oleic acid; lipid storage change, negative = inhibition: at 46.1 µM (top of the series) unless noted
# Outline: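 Laser-scanning cytometry quantifies lipid droplet accumulation (500–530 nm total intensity; droplet/cell object ratio) in oleic acid-fed (400 uM added) Drosophila S3 cells treated with a concentration series. 20 uM Triacsin C defined 100% inhibition.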
# % is set by controls: 0 for no effect and ±100 for the full control effect; potency is the fitted concentration of half-maximal effect.
Structure (SMILES),"lipid storage change, negative = inhibition",Potency
Nc1ccc2c(c1)-c1ccccc1S(=O)(=O)N2,inconclusive: 49%,–
COc1ccc(CC(=O)Nc2cccc(S(=O)(=O)N3CCCCCC3)c2)cc1OC,–,active: 20.6 µM
Fc1ccc(Nc2c3c(nc4ccccc24)CCC3)cc1,–,"inconclusive: 6.51 µM [rising, full curve]"
CC(C)(C)c1cc(CCC(=O)NCc2cccnc2)cc(C(C)(C)C)c1O,–,"inconclusive: 29.1 µM [activator, single point]"
COc1ccc(CNc2nc3ccccc3n2C(C)C)c(O)c1,inconclusive: 20.4%,–
O=C(CC12CC3CC(CC(C3)C1)C2)NC(=S)NCc1ccco1,inconclusive: -46.5% [cytotoxic] [at 0.00295 µM],–
O=C(CNC(=O)c1cccc(Br)c1)N/N=C/c1cn[nH]c1-c1ccccc1,–,"inconclusive: 29.1 µM [activator, single point]"
CCOc1c(Br)cc(CNCc2cccs2)cc1OC,inconclusive: -12.1%,–
COc1ccc(OC)c(S(=O)(=O)n2cnc3cc(C)c(C)cc32)c1,–,"inconclusive: 0.291 µM [activator, full curve]"
COc1ccc(-n2c(SCC(=O)NNC(=O)c3ccc(C)cc3)nnc2-c2ccncc2)cc1,inconclusive: 0.502%,–
CCc1nc2oc3cc(OC)ccc3c(=O)c2c(=O)n1Cc1ccco1,inconclusive: 18.1%,–
C=C(C)C(=O)OCC(O)COc1ccc(C(C)(C)c2ccc(OCC(O)COC(=O)C(=C)C)cc2)cc1 (stereo not drawn),inconclusive: 12.1%,–
Cn1ncc2c(Nc3cccc4ccccc34)ncnc21,–,"inconclusive: 0.731 µM [rising, partial curve, poor fit]"
O=C(COc1ccccc1)Nc1ccc2c(c1)nc1n2CCOC1,–,"inconclusive: 32.6 µM [activator, single point]"
COc1ccc(Cn2c(-c3ccc(Cl)cc3)c[n+]3ccccc23)cc1,inconclusive: 19.4%,–
COc1ccc(-c2nc(-c3ccc4c(c3)OCO4)[nH]c2-c2ccc(OC)cc2)cc1,–,"inconclusive: 0.0046 µM [activator, full curve, poor fit]"
O=C(NC(Cc1ccccc1)C(=O)O)/C(=C\c1ccc(F)cc1)NC(=O)c1ccco1 (stereo not drawn),inconclusive: -3.86%,–
O=[N+]([O-])c1ccc(OCCO)nc1,inconclusive: -18.7%,–
COC(=O)C/C(O)=C(/N=Nc1cccc(C(F)(F)F)c1)C(=O)OC,–,"inconclusive: 6.51 µM [falling, single point]"
COc1ccccc1C1CCN(Cc2ccc3ccccc3c2)CC1,–,"inconclusive: 29.1 µM [cytotoxic, single point]"
O=S(=O)(c1ccccc1)N1CCN(Cc2cccc(Cl)c2)CC1,inconclusive: 28.2%,–
CC(NC(=O)Nc1ccc(Cl)cc1)c1ccccc1 (stereo not drawn),–,"inconclusive: 29.1 µM [falling, partial curve, poor fit]"
COc1cccc(N=Cc2c(O)c3ccccc3oc2=O)c1,–,"inconclusive: 29.1 µM [falling, single point]"
O=C(CN1C(=O)COc2ccccc21)Nc1ccc(F)cc1,inconclusive: -42.5%,–
Cc1cc(NC(=O)Cn2nc(C(=O)O)c3ccccc3c2=O)c([N+](=O)[O-])cc1C,–,"inconclusive: 29.1 µM [falling, single point]"

Structure (SMILES),"lipid storage change, negative = inhibition",Potency
COc1cc(C(=O)NNC(=O)c2n[nH]c3ccccc23)cc(OC)c1OC,inconclusive: 7.01%,–
CCOC(=O)c1cc(CC)sc1NC(=O)c1ccc2c(c1)OCCO2,–,"inconclusive: 18.4 µM [activator, partial curve]"
CC1(C)CC(NC(=O)CC2CCCCC2)CC(C)(C)N1,inconclusive: -13.1%,–
CCOc1cc(Br)c(CC(=O)NC2CCCCCC2)cc1OCC,inconclusive: -3.05%,–
O=S(=O)(NCC(c1ccc2c(c1)OCO2)N1CCOCC1)c1ccc(Cl)cc1 (stereo not drawn),–,"inconclusive: 0.164 µM [activator, full curve, poor fit]"
CN(C)C(=O)N1CCN(C(=O)c2ccco2)CC1,inconclusive: -13.6%,–
CCCCN(C)c1c(N2CCC(C(=O)OCC)CC2)c(=O)c1=O,inconclusive: 21.5%,–
NC(=O)CSc1n[nH]c(=O)n1CCc1ccccc1,inconclusive: 31.1%,–
CCOc1ccc(CCNC(=O)c2sc3nc4n(c(=O)c3c2C)CCC4)cc1,inactive,–
Cc1ccccc1Nc1nc(N)nc(COC(=O)c2ccc(O)cc2)n1,inconclusive: -40.7%,–
COC(=O)Cc1c(C)c2c(OCc3nn[nH]n3)cc(C)cc2oc1=O,inconclusive: -2.12%,–
Cn1c(=O)c(C(=O)NCc2ccccc2)c(O)c2ccccc21,inactive,–
CCOc1ccccc1NC(=O)NC(=O)N(C)S(=O)(=O)c1ccc(C)cc1,inconclusive: 5.94%,–
O=C(CN1CC(=O)Nc2ccccc21)NCCc1ccc(Cl)cc1Cl,inactive,–
CNC(=S)N/N=C/c1ccc(-c2ccc(Cl)c([N+](=O)[O-])c2)o1,–,"inconclusive: 25.9 µM [falling, single point]"
CC(NC(=O)C(=O)NCC1CCCO1)c1ccccc1 (stereo not drawn),inconclusive: 6.8%,–
Cc1c(Nc2cc(N3CCCC(C)C3)c3nonc3c2[N+](=O)[O-])c(=O)n(-c2ccccc2)n1C (stereo not drawn),inconclusive: 19.2%,–
COc1ccc(OC)c(-c2csc(NC(=O)Cc3ccccc3)n2)c1,–,"inconclusive: 0.13 µM [falling, single point]"
Oc1ccccc1N1CCN(C(=S)NCc2ccccc2)CC1,inconclusive: 54.2%,–
O=C(N/N=C/c1ccccc1Cl)c1cccc(F)c1,inactive,–
COc1ccc(CCNC(=O)C(C)n2nc(C)c3c(C)n(-c4ccc(C)cc4)nc3c2=O)c(OC)c1 (stereo not drawn),–,"inconclusive: 0.92 µM [activator, full curve, poor fit]"
CC1C/C(=N/N=C2/NC(=O)CS2)CC(C)(C)C1 (stereo not drawn),inconclusive: 30.9%,–
O=C1N(c2ccc3c(c2)OCCO3)C(c2ccccc2)C1(F)F (stereo not drawn),–,"inconclusive: 6.51 µM [activator, single point]"
Cc1ccc(NC(=O)c2cncc(Br)c2)c([N+](=O)[O-])c1,inconclusive: 10.8%,–
COc1ccc(NS(=O)(=O)c2cc(NC(=O)c3cc(=O)c4ccccc4o3)ccc2OC)cc1,inconclusive: -13.8%,–

# Complete entries, looked up by structure. Values in the order: lipid storage change, negative = inhibition | Potency
# `COc1ccc(NS(=O)(=O)c2cc(NC(=O)c3cc(=O)c4ccccc4o3)ccc2OC)cc1` in the list: inconclusive: -13.8% | –
# `CNC(=S)N/N=C/c1ccc(-c2ccc(Cl)c([N+](=O)[O-])c2)o1` in the list: – | inconclusive: 25.9 µM [falling, single point]
# `CC1(C)CC(NC(=O)CC2CCCCC2)CC(C)(C)N1` in the list: inconclusive: -13.1% | –
# `CCOc1cc(Br)c(CC(=O)NC2CCCCCC2)cc1OCC` in the list: inconclusive: -3.05% | –

# Further records:

Structure (SMILES),"lipid storage change, negative = inhibition",Potency
CC1=N/C(=C\c2ccc3c(c2)OCO3)C(=O)N1c1ccc(C(=O)O)cc1,inconclusive: -16%,–
O=C(COC(=O)c1ccccc1O)NCC1COc2ccccc2O1 (stereo not drawn),inconclusive: 7.14%,–
CN1CCc2c1nc1ccccc1c2N (tested in a mixture with another compound),–,"inconclusive: 6.51 µM [falling, partial curve, poor fit]"
CCOc1ccc(NC(=O)COC(=O)CCN2C(=O)C3CC=CCC3C2=O)cc1OCC (stereo not drawn),–,"inconclusive: 2.31 µM [activator, partial curve, poor fit]"
O=C1C(=O)N(CCN2CCOCC2)C(c2cccc(Cl)c2)/C1=C(/O)c1ccc2c(c1)OCO2 (stereo not drawn),–,"inconclusive: 0.651 µM [falling, full curve, poor fit]"
CC(C)CC[n+]1ccn(-c2nc3ccccc3nc2[N-]S(=O)(=O)c2ccccc2)c1,inconclusive: -12.1%,–
Cc1nc2ccc(S(=O)(=O)N(C)CC(=O)NCCc3ccccc3)cc2s1,–,"inconclusive: 0.0651 µM [activator, full curve, poor fit]"
CC(=O)c1cccc(NC(=O)c2ccc(S(=O)(=O)N3CCCC3)cc2)c1,–,"inconclusive: 29.1 µM [falling, partial curve, poor fit]"
CCOC(=O)C(CC)Sc1nc2c(c(=O)[nH]c(=O)n2C)n1CCc1ccccc1 (stereo not drawn),inconclusive: -35.8%,–
COc1ccc2c(CC(=O)Nc3nnc(C4CC4)s3)coc2c1,–,"inconclusive: 11.6 µM [activator, partial curve]"
CN(C)CCCn1c(NC(=O)C2CCCCC2)nc2ccccc21,–,"inconclusive: 0.0366 µM [falling, full curve, poor fit]"
O=S(=O)(Nc1nccs1)c1ccc2c(c1)OCCO2,–,"inconclusive: 6.51 µM [falling, single point]"
CC(C)N1CC(COc2ccc(Cl)cc2Cl)OC1=O (stereo not drawn),–,"inconclusive: 0.58 µM [falling, single point]"
CCOC(=O)N/N=C(C)/C=C/c1ccccc1,–,"inconclusive: 1.84 µM [activator, partial curve, poor fit]"
COc1cc(Cl)c(C)cc1NC(=O)CSc1nnc(CCC(=O)O)c(=O)[nH]1,inconclusive: 40.2%,–
COc1ccc(CCNC(=O)c2cc(=O)[nH]c3ccccc23)cc1,–,"inconclusive: 18.4 µM [activator, single point]"
CCc1ccccc1NC(=O)CNC(=O)c1ccc(-n2cncn2)c([N+](=O)[O-])c1,–,"inconclusive: 0.146 µM [falling, full curve, poor fit]"
CCOc1[nH]n(-c2ccccc2)c(=O)c1C=Nc1ccc(OC)cc1,inconclusive: 8.35%,–
O=c1c2c3c(sc2nc(N2CCNCC2)n1-c1cccc(Cl)c1)CCCCC3,inconclusive: 16.6%,–
CC1CCN(CCCOc2ccc(Cl)cc2Br)CC1,–,"inconclusive: 29.1 µM [activator, single point]"
COC(=O)[C@H](CCSC)NC(=O)NCc1ccc(S(N)(=O)=O)cc1,inconclusive: 56.9%,–
O=c1c2ccccc2n(Cc2cccc(F)c2)c(=O)n1C1CCCC1,–,"inconclusive: 18.4 µM [activator, single point]"
CCOC(=O)Cn1cc(C#N)c(=O)[nH]c1=O,–,"inconclusive: 4.61 µM [cytotoxic, full curve, poor fit]"
